What all share (test): protein microarray (ProtoArray v5.0), streptavidin-Alexa Fluor 647
Holding throughout (details): 3'-biotin; 20 mM Tris (pH 7.5), 5 mM MgCl2, 100 mM KCl, 0.1% Tween-20, A/T-rich and random oligonucleotide blockers; temperature not stated; high values mean tight binding

Test [1] relates to Serine/threonine-protein kinase Chk2 (human).
For test [2], the system named is Serine/threonine-protein kinase D2 (human).
Test [3] relates to Serine/threonine-protein kinase MRCK alpha (human).
The subject of test [4] is Serine/threonine-protein kinase Nek6 (human).
For test [5], the system named is Serine/threonine-protein kinase PAK 2 (human).
Test [6] has as its system Serine/threonine-protein kinase Sgk3 (human).
Test [7] deals with Serine/threonine-protein kinase ULK4 (human).
The subject of test [8] is Serine/threonine-protein phosphatase 2A 56 kDa regulatory subunit gamma isoform (human).
Test [9] deals with Serine/threonine-protein phosphatase 2A 65 kDa regulatory subunit A beta isoform (human).
Test [10] has as its system Serine/threonine-protein phosphatase 4 regulatory subunit 3A (human).

The list shows a part of the results.

Regarding “GGGAGGCTGAGGCAGG [G4-1 biotinylated (PQS2)]”, the binding signal in [1] is -0.267 z-score; in test [2] it was -0.307 z-score; in [3], -0.352 z-score; in test [4], -0.312 z-score; in test [5] it was -0.245 z-score; in [6], -0.244 z-score. The binding signal in test [7] was -0.32 z-score; in [8], -0.353 z-score; in test [9], -0.359 z-score; in [10], -0.338 z-score.

(Values after article PMC5996148.)
